107 sequences from PubChem BioAssay AID1347426 (Functional Genomics Laboratory (NCATS/FGL), 2020) can be followed below.

Among all 31,000 sequences or so, about 1,400 (4.5%) were called active.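 How the source made its calls: active means median seed-adjusted z-score above 1 or below -1; inactive means the rest.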 The list shows a part of the results.

The experiment is described as follows: Novel Modifiers of Survival Motor Neuron (SMN) Protein: Gene Identification via Genome-wide siRNA Screen.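 Further: luminescence tracks full-length SMN protein made from the SMN2 reporter.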 To be noted: HEK293T SMN2-luciferase reporter, siRNA knockdown, 72 h; actives lie on both sides. The gist of the method: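 HEK293T cells stably carrying an SMN2 promoter/splicing cassette–luciferase reporter were reverse-transfected with 1 pmol siRNA per well (druggable-genome library, 3 siRNAs per gene) and grown 72 h at 37 °C. Luminescence, normalized to negative-control siRNA and log10-transformed, was scored as MAD.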
GAAGGAGGCUGAUCCCUGATT against HLA-G: the median seed-adjusted z-score was inactive: 0.0348.

As to CCAUGGUACAAGUUGAUGATT against LARP4, the median seed-adjusted z-score was inactive: -0.701.

As for GCGCUCUACUUGUACCUCATT against GPR157, the median seed-adjusted z-score was inactive: 0.152.

Consider GGCUGAAUUAUGACCGGAATT against PPFIA4, for which the median seed-adjusted z-score is inactive: 0.0399.

Take CCAUGCUGUCUAUAGCCUATT against TRPC5: the median seed-adjusted z-score is active: -1.14.

Consider GAGAUGCAGUUGAUGCGAATT against LAMA2, for which the median seed-adjusted z-score is inactive: 0.0733.

GAAGGUGUUUCAUACGAAUTT against SIPA1L1: the median seed-adjusted z-score was inactive: 0.0925.

On to GGCUCUCACUGGAAUCUCUTT against SMARCAL1, for which the median seed-adjusted z-score was inactive: -0.145.

Consider GCAGAGUGAAGGGAGCAAATT against DVL1, for which the median seed-adjusted z-score is inactive: -0.814.

GGACGAUCACGGAAAUCAUTT against PTPLB: the median seed-adjusted z-score is inactive: 0.0451.

Consider UCGAUAUCCUAGUCUCCAATT against DHRS4, for which the median seed-adjusted z-score is inactive: 0.263.

In the case of GGUGCGUCAUUCUAUAACATT against DNAH11, the median seed-adjusted z-score is inactive: 0.104.

Regarding GGACUUGGAGUUUCGCAAATT against LMNB1, the median seed-adjusted z-score is inactive: 0.0619.

AGCCCACGGUCUUCCACUATT against ACPT: the median seed-adjusted z-score is inactive: -0.114.

As for CAACUUUGAGGUAAAGUCATT against PRPF19, the median seed-adjusted z-score was inactive: -0.485.

As to CGAUACAUGGUUUUCCGAUTT against ABCB1, the median seed-adjusted z-score is inactive: -0.384.

CAGCUUAAUUUUUACGCAATT against IPMK: the median seed-adjusted z-score was inactive: -0.00138.

On to AGUCAUCAAAGGUUUUGAATT against FKBP1B, for which the median seed-adjusted z-score was inactive: -0.561.

On to CCUCCACUAUGAUCCUUAATT against HES5, for which the median seed-adjusted z-score was inactive: -0.00853.

With GGUGUGAACUGCGAAGUGATT against NOTCH3, the median seed-adjusted z-score was inactive: 0.395.

As for GGAGUUGUCGUAGACUAUATT against NUP214, the median seed-adjusted z-score is inactive: 0.074.

In the case of GCCCUACAGUAAGCACUAUTT against SMYD2, the median seed-adjusted z-score was inactive: -0.393.

Regarding AAGGCAAAGUCGACCCAUATT against TSP50, the median seed-adjusted z-score was inactive: 0.133.

As to GGCACGGAAUGUUAACACUTT against MAP4K3, the median seed-adjusted z-score is inactive: -0.49.

With CAUCUGCUCGUGGACCUCATT against PIGQ, the median seed-adjusted z-score is inactive: 0.00996.

With GGUGCUACAUCCUAGAGAATT against SULF2, the median seed-adjusted z-score is inactive: -0.109.

Consider GCUGGUCCCUUGGAUAAGATT against MED1, for which the median seed-adjusted z-score is inactive: -0.855.

Regarding GAUUGUUCCCAACAUUAAATT against MID2, the median seed-adjusted z-score was inactive: -0.0363.

Turning to CUAUUAACAUGGUGACAGATT against EIF4A1, the median seed-adjusted z-score was active: -1.05.

Consider GACAAGAGAUCAUUAAAAUTT against COL16A1, for which the median seed-adjusted z-score is inactive: -0.0496.

On to GCAACGCAGGUGACACCUATT against MMP25, for which the median seed-adjusted z-score was inactive: 0.

Take CAUUGGACAUCAUAGAGUATT against ZSCAN16: the median seed-adjusted z-score is inactive: -0.274.

In the case of GGACAUCGAUUUCAACUAATT against MTMR2, the median seed-adjusted z-score is inactive: 0.495.

In the case of GAGUUGAGAUUAUCCGAAUTT against STAMBP, the median seed-adjusted z-score was inactive: 0.511.

As for GAUUUCAUCUUGACCGAAATT against GSTT2, the median seed-adjusted z-score was inactive: 0.0298.

Turning to CAUCGUCAAUUACAACUCATT against LHX9, the median seed-adjusted z-score is inactive: 0.157.

As to GAGUAACUCUUAAUCGCCUTT against LAMC1, the median seed-adjusted z-score was inactive: 0.0473.

On to GAUACACUCUCUUCCCGAUTT against PTAFR, for which the median seed-adjusted z-score is inactive: 0.302.

For the sequence CUACCAAUAUGAUAGGUUATT against DDX17, the median seed-adjusted z-score is inactive: 0.231.

GCAGUUUCUUAACCACGUUTT against IFI16: the median seed-adjusted z-score was inactive: -0.0178.

CAAAAAUGUCUAUUCUUGATT against TRIM27: the median seed-adjusted z-score is inactive: -0.378.

Turning to GCCUGGUGUACCUCAGUAATT against MRGPRX2, the median seed-adjusted z-score was inactive: 0.0476.

As for GAACAGGCCCGAGUACUAATT against GBP3, the median seed-adjusted z-score is inactive: -0.864.

Consider CAUUAUCAGUGACUUUUCUTT against MAS1, for which the median seed-adjusted z-score was inactive: -0.0551.

For the sequence CACUACCACUUCUACGAGATT against PLCD4, the median seed-adjusted z-score was inactive: -0.4.

On to AAAUGGAUGAGUUGCAAUUTT against PITX1, for which the median seed-adjusted z-score was inactive: 0.

On to GAGUCACAGAUCAAGAUUUTT against EN2, for which the median seed-adjusted z-score was inactive: 0.319.

For the sequence ACCACUACCUGCUUAUUGATT against ZNF581, the median seed-adjusted z-score is inactive: 0.486.

In the case of GAAUGCAAUGGAUCAACUATT against ING3, the median seed-adjusted z-score is inactive: 0.192.

For UGGUCUUUUUGAAUACGAUTT against CATSPER2, the median seed-adjusted z-score is inactive: -0.653.

On to GUAUGAGCAAGGAUACCAATT against HERC6, for which the median seed-adjusted z-score is inactive: 0.324.

Consider GAAUGAGCAAUUUGACAGATT against SERPINB8, for which the median seed-adjusted z-score is inactive: 0.371.

Take GAGACCCUCUGGUUAUAGATT against FKBP11: the median seed-adjusted z-score is inactive: -0.085.

For the sequence GACCCGUCUUAUUAUCUGATT against PPIL2, the median seed-adjusted z-score was inactive: -0.467.

On to AGAGUACGCUCAGACACUATT against RBM15B, for which the median seed-adjusted z-score is inactive: -0.183.

For GCUUCAAUUGGUUACCGAATT against KLHL5, the median seed-adjusted z-score was inactive: 0.48.

For the sequence CCUUCGUCAUGUUUCGGAATT against GRIK3, the median seed-adjusted z-score is inactive: 0.128.

Consider GCUGGUGACUGAGUUUUCATT against NOB1, for which the median seed-adjusted z-score was inactive: -0.0844.

On to GGACGGUUACUGCUCAUUUTT against CHAF1B, for which the median seed-adjusted z-score is inactive: 0.634.

Take GGAACUCUAUGGUCAUCUATT against SSTR1: the median seed-adjusted z-score is inactive: 0.285.

With GCGGAGAAAUGGAAACAUATT against TCF3, the median seed-adjusted z-score is inactive: -0.0126.

Consider GCUUUAUCCUUUCCGUGUATT against SERPINB2, for which the median seed-adjusted z-score is inactive: -0.0739.

For CAUUGAUCGCCGUAGAAAATT against BCLAF1, the median seed-adjusted z-score is inactive: -0.823.

Consider GGUCCUUACUAGCAAUGUUTT against ELF1, for which the median seed-adjusted z-score was inactive: 0.0269.

As to AGCUGCCCAUGGUCCUGAATT against SPPL2B, the median seed-adjusted z-score was inactive: 0.0324.

GUUUAUAAAAGGUAUGCUATT against AP1S3: the median seed-adjusted z-score was inactive: 0.153.

With GAACAACGGAAGCUACAGATT against COPG2, the median seed-adjusted z-score was inactive: -0.564.

In the case of CGAUAGCCUGAAUCAGUAUTT against CCBL2, the median seed-adjusted z-score was inactive: 0.184.

As for GGGUGGAUCUCGUGACUAUTT against NADSYN1, the median seed-adjusted z-score is inactive: 0.217.

Take GAAGGAGUUUGCACAGAAATT against DHDH: the median seed-adjusted z-score is inactive: 0.522.

Regarding GUGUCACAAUUUUAUCUCATT against XPO7, the median seed-adjusted z-score was inactive: 0.546.

For CAGCGGCUCAGGUGAAGAATT against ACADS, the median seed-adjusted z-score is inactive: 0.121.

Regarding CCACUGCCGUGAUUCAUGATT against CYP2D6, the median seed-adjusted z-score is inactive: -0.0488.

On to CGGACAUUCUAAUGCAUAUTT against HAGH, for which the median seed-adjusted z-score was inactive: 0.647.

As to GCUCAACAUGGAUCGAGAATT against CDH6, the median seed-adjusted z-score was inactive: 0.

As for GAAUUUUGAUGUCAUACGATT against DTNB, the median seed-adjusted z-score was inactive: -0.142.

In the case of GCGUGACAGUGAUCCUGUATT against SLC27A5, the median seed-adjusted z-score is inactive: 0.441.

Consider CCCUCUACCCUCAAUGUUATT against SOCS5, for which the median seed-adjusted z-score was inactive: 0.312.

ACAGCUACAUCAUUCUGUATT against GSN: the median seed-adjusted z-score was inactive: -0.222.

Take GAGAUUCUCAGAUACCUGATT against APOBEC3B: the median seed-adjusted z-score is inactive: 0.

Turning to GGACCAUCCAGCUUCUGGATT against GALE, the median seed-adjusted z-score is inactive: -0.153.

In the case of CAAUGUGCCUCAACUCGAATT against TPH2, the median seed-adjusted z-score was inactive: 0.275.

Regarding UGGAGUAACUAAAGAAGUUTT against AMY1A, the median seed-adjusted z-score is inactive: 0.272.

In the case of GCAAGUUUCGGACAGUACATT against TP63, the median seed-adjusted z-score is inactive: -0.129.

With GCAUUUCGCUGUACAAGUUTT against IPO4, the median seed-adjusted z-score was inactive: -0.0188.

For CGAAAACGAAAAUACUUCATT against NFIA, the median seed-adjusted z-score was inactive: -0.268.

Regarding GAAUAGGUAUUGGUGAAUUTT against EGFR, the median seed-adjusted z-score was inactive: 0.263.

In the case of CGAUAUACUGCACUAGAUATT against COPS2, the median seed-adjusted z-score is inactive: 0.202.

With GAGGCAAGACGGUACUGGATT against PRMT6, the median seed-adjusted z-score is inactive: -0.412.

With GCAGUGAAGUUUCUACAGATT against PEX14, the median seed-adjusted z-score was inactive: 0.844.

With CCAUGACCUUCAUUGAUCATT against ALPK2, the median seed-adjusted z-score is inactive: -0.154.

As for CUUUGGAACAAAUACCGAATT against NXN, the median seed-adjusted z-score is inactive: 0.175.

On to CAUCACGCCUAGAGAAUUATT against RAI1, for which the median seed-adjusted z-score was inactive: 0.113.

For the sequence GCAUCAGCUUAGAUCCAGATT against STX16, the median seed-adjusted z-score is inactive: -0.569.

Turning to AGGACAAUCCUGACAAGAATT against SEMA7A, the median seed-adjusted z-score is inactive: 0.0522.

Regarding GACAGUAACUUUAAUUCCATT against IDH3A, the median seed-adjusted z-score is inactive: 0.137.

Turning to GGUCAUAGCCGUGAACGAATT against CHL1, the median seed-adjusted z-score is inactive: 0.1.

For CCAUAUUGGAGAAUCCAGATT against CCNH, the median seed-adjusted z-score was inactive: -0.659.

For GGAAGAAGGUGAUCGAUGATT against HIVEP3, the median seed-adjusted z-score was inactive: 0.516.

On to CAAAGAUGUUGAUAUGCCUTT against GJC2, for which the median seed-adjusted z-score was inactive: 0.

For AAUCUAUUGCUGUCAGAUATT against TUBB3, the median seed-adjusted z-score was inactive: 0.208.

Regarding AGAAAUUGGUGUUCAGAAUTT against GTF2F2, the median seed-adjusted z-score is active: -1.14.

As to GCUUCCUGAUUAUCGACGATT against DDX51, the median seed-adjusted z-score was inactive: -0.0715.

As to GACAAGUACAAGACCAUUATT against SERPINA10, the median seed-adjusted z-score is inactive: 0.0233.

As for GCAGUUUGGGUACAACAUUTT against SLC2A4, the median seed-adjusted z-score was inactive: 0.0588.

Regarding GUUUCCAACUUGCUCAUGATT against CDK10, the median seed-adjusted z-score was inactive: 0.327.

Turning to GGGUGCACAUCAUUAAGAATT against TBX20, the median seed-adjusted z-score is inactive: 0.00303.
